# According to the supplement of paper PMC7125110:
# ± gives the standard error. Many of these values have a large error.
# B1: glmS ribozyme (parent)
# chain: AUAAAAGCGCCAGAACUACAGAAAUGUAGUUGACGAGGAGGAGGUUUAUCGAAUUUUCGGCGGAUGCCUCCAAA
# Variants of: B1
# Test: self-cleavage kobs at 2500 uM GlcN6P; higher = faster cleavage; RNA array
# Conditions: with glucosamine-6-phosphate
# How it was run: (§1)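 Tiles of sequenced MiSeq chips were imaged over ~14 h at 37 °C. On them, barcoded ribozyme variants had been transcribed in situ by E. coli RNA polymerase and were tracked via a hybridised Cy3 probe while glucosamine-6-phosphate (40 μM to 10 mM) in HEPES/KCl/Mg(OAc)2 buffer flowed in. Per-tile medians, normalised to baseline and to non-cleaving reference variants, were fit to one- or two-exponential decays for kobs, and weighted Michaelis–Menten fits gave kcat and KM.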
row,Variant,self-cleavage kobs at 2500 uM GlcN6P [s⁻¹]
1,AUAAAAGCGCCAGAACUACAGAAAUGUAGUUGACGAGGAGGAGGUUUAUUGAAUUUUCGGUGGAUGUCUCCAAA [C50U C61U C67U],0.000972 ± 0.0008
2,AUAAAAGCGCCAGAACUACAGAAAUGUAGUUGACGAGGAGGAGGUUUAUUGAAGUUUCGGCGGAUGCCUACAAA [C50U U54G C70A],6.19e-05 ± 3.2e-05
3,AUAAAAGCGCCAGAACUACAGAAAUGUAGUUGACGAGGAGGAGGUUUAUUGAAUGUUCGGCGGAUGCAUCCAAA [C50U U55G C68A],4.24e-05 ± 2.7e-05
4,AUAAAAGCGCCAGAACUACAGAAAUGUAGUUGACGAGGAGGAGGUUUAUCAAAUUUUCGGCGGAUGCCUCCAAA [G51A],< 1e-05
5,AUAAAAGCGCCAGAACUACAGAAAUGUAGUUGACGAGGAGGAGGUUUAUCGCAUUUUCGGGGUAUGACUCCAAA [A52C C61G G63U C67A],5.07e-05 ± 2.8e-05
6,AUAAAAGCGCCAGAACUACAGAAAUGUAGUUGACGAGGAGGAGGUUUAUCGUAUUUUCGGCGGAUGGUUCCAAA [A52U C67G C68U],3.98e-05 ± 2.2e-05
7,AUAAAAGCGCCAGAACUACAGAAAUGUAGUUGACGAGGAGGAGGUUUAUCGUAUUCUCGGCGGAUGCCUCCAAA [A52U U56C],1.86e-05 ± 1.4e-05
8,AUAAAAGCGCCAGAACUACAGAAAUGUAGUUGACGAGGAGGAGGUUUAUCGUAUUUUCGGCGGAGGCCUCCAAA [A52U U65G],2e-05 ± 1.1e-05
9,AUAAAAGCGCCAGAACUACAGAAAUGUAGUUGACGAGGAGGAGGUUUAUCGACUUUUCGGAGGAUGCCUCCAAA [A53C C61A],0.00242 ± 0.0018
10,AUAAAAGCGCCAGAACUACAGAAAUGUAGUUGACGAGGAGGAGGUUUAUCGACUUUACGGCGGAUGCGUUCAAA [A53C U57A C68G C70U],0.000617 ± 0.00037
11,AUAAAAGCGCCAGAACUACAGAAAUGUAGUUGACGAGGAGGAGGUUUAUCGAGUUUUGGGCGGAUGCCUCGAAA [A53G C58G C71G],0.000722 ± 0.00036
12,AUAAAAGCGCCAGAACUACAGAAAUGUAGUUGACGAGGAGGAGGUUUAUCGAUUUUUUGGCGGAUGUCUCCAAA [A53U C58U C67U],3.34e-05 ± 2.5e-05
13,AUAAAAGCGCCAGAACUACAGAAAUGUAGUUGACGAGGAGGAGGUUUAUCGAUUUUAUGGCGGAUGCCUCCAAA [A53U U57A C58U],2.09e-05 ± 2.1e-05
14,AUAAAAGCGCCAGAACUACAGAAAUGUAGUUGACGAGGAGGAGGUUUAUCGAAAUUACGGCGGAUUCCUCCAAA [U54A U57A G66U],2.9e-05 ± 2.6e-05
15,AUAAAAGCGCCAGAACUACAGAAAUGUAGUUGACGAGGAGGAGGUUUAUCGAACUUUCGGCUGAUGCCACCAAA [U54C G62U U69A],3.35e-05 ± 2.4e-05
16,AUAAAAGCGCCAGAACUACAGAAAUGUAGUUGACGAGGAGGAGGUUUAUCGAAGUUUCGACGGAUGCCUCCAAA [U54G G60A],3.43e-05 ± 2e-05

# Reformatted: entries from further up
row	Variant	self-cleavage kobs at 2500 uM GlcN6P [s⁻¹]
8	AUAAAAGCGCCAGAACUACAGAAAUGUAGUUGACGAGGAGGAGGUUUAUCGUAUUUUCGGCGGAGGCCUCCAAA [A52U U65G]	2e-05 ± 1.1e-05
9	AUAAAAGCGCCAGAACUACAGAAAUGUAGUUGACGAGGAGGAGGUUUAUCGACUUUUCGGAGGAUGCCUCCAAA [A53C C61A]	0.00242 ± 0.0018

# Additional records:

row,Variant,self-cleavage kobs at 2500 uM GlcN6P [s⁻¹]
1,AUAAAAGCGCCAGAACUACAGAAAUGUAGUUGACGAGGAGGAGGUUUAUCGAAGUUGGGGCGGAUGCCUCCAAA [U54G U57G C58G],2.05e-05 ± 2e-05
2,AUAAAAGCGCCAGAACUACAGAAAUGUAGUUGACGAGGAGGAGGUUUAUCGAAUAUUUGGCGGAUGCCUCAAAA [U55A C58U C71A],2.16e-05 ± 2.2e-05
3,AUAAAAGCGCCAGAACUACAGAAAUGUAGUUGACGAGGAGGAGGUUUAUCGAAUAUUCGGCGGAUGCCGCAAAA [U55A U69G C71A],3.32e-05 ± 3e-05
4,AUAAAAGCGCCAGAACUACAGAAAUGUAGUUGACGAGGAGGAGGUUUAUCGAAUCUUCGGCGGAUGCCGCCAAA [U55C U69G],2.08e-05 ± 1.4e-05
5,AUAAAAGCGCCAGAACUACAGAAAUGUAGUUGACGAGGAGGAGGUUUAUCGAAUGUGCGGCGGAUGCCUCCAAA [U55G U57G],1.4e-05 ± 1.3e-05
6,AUAAAAGCGCCAGAACUACAGAAAUGUAGUUGACGAGGAGGAGGUUUAUCGAAUUAUAGGCGGAUGCCUGUAAA [U56A C58A C70G C71U],3.98e-05 ± 2.4e-05
7,AUAAAAGCGCCAGAACUACAGAAAUGUAGUUGACGAGGAGGAGGUUUAUCGAAUUGUCGACGGAUGCCUCCAAA [U56G G60A],1.83e-05 ± 1.5e-05
8,AUAAAAGCGCCAGAACUACAGAAAUGUAGUUGACGAGGAGGAGGUUUAUCGAAUUUACGGUGGAUGCCUGCAAA [U57A C61U C70G],3.59e-05 ± 2e-05
9,AUAAAAGCGCCAGAACUACAGAAAUGUAGUUGACGAGGAGGAGGUUUAUCGAAUUUACGGCGAAUGCCACCAAA [U57A G63A U69A],3.43e-05 ± 3.3e-05
10,AUAAAAGCGCCAGAACUACAGAAAUGUAGUUGACGAGGAGGAGGUUUAUCGAAUUUCCGGCGGAUGCCGCCAAA [U57C U69G],2.55e-05 ± 1.4e-05
11,AUAAAAGCGCCAGAACUACAGAAAUGUAGUUGACGAGGAGGAGGUUUAUCGAAUUUGAGGCGGAUGCCUCCAAA [U57G C58A],6.19e-05 ± 3.2e-05
12,AUAAAAGCGCCAGAACUACAGAAAUGUAGUUGACGAGGAGGAGGUUUAUCGAAUUUGCGGCCGAUGCUUGCAAA [U57G G62C C68U C70G],2.65e-05 ± 1.7e-05
13,AUAAAAGCGCCAGAACUACAGAAAUGUAGUUGACGAGGAGGAGGUUUAUCGAAUUUGCGGCGGAUACCUCCAAA [U57G G66A],2.02e-05 ± 1.6e-05
14,AUAAAAGCGCCAGAACUACAGAAAUGUAGUUGACGAGGAGGAGGUUUAUCGAAUUUUAGGCGGAUCCCUCCAAA [C58A G66C],4.03e-05 ± 2e-05
15,AUAAAAGCGCCAGAACUACAGAAAUGUAGUUGACGAGGAGGAGGUUUAUCGAAUUUUGGGCGGAUGCCACCAAA [C58G U69A],3.21e-05 ± 2.5e-05
16,AUAAAAGCGCCAGAACUACAGAAAUGUAGUUGACGAGGAGGAGGUUUAUCGAAUUUUUGGGGGAUAACUCCAAA [C58U C61G G66A C67A],4.33e-05 ± 3.1e-05

# Variants of: B1
# Test: self-cleavage kobs at 10000 uM GlcN6P; higher = faster cleavage; RNA array
# Conditions: with glucosamine-6-phosphate
# How it was run: as §1
row,Variant,self-cleavage kobs at 10000 uM GlcN6P [s⁻¹]
1,AUAAAAGCGCCAGAACUACAGAAAUGUAGUUGACGAGGAGGAGGUUUAUCGUAUUCUCGGCGGAUGCCUCCAAA [A52U U56C],2.41e-05 ± 1.2e-05
2,AUAAAAGCGCCAGAACUACAGAAAUGUAGUUGACGAGGAGGAGGUUUAUCGAAGUUUCGACGGAUGCCUCCAAA [U54G G60A],2e-05 ± 1e-05
3,AUAAAAGCGCCAGAACUACAGAAAUGUAGUUGACGAGGAGGAGGUUUAUCGAAUCUUCGGCGGAUGCCGCCAAA [U55C U69G],1.73e-05 ± 1.7e-05
4,AUAAAAGCGCCAGAACUACAGAAAUGUAGUUGACGAGGAGGAGGUUUAUCGAAUUUGAGGCGGAUGCCUCCAAA [U57G C58A],2.06e-05 ± 1.6e-05
5,AUAAAAGCGCCAGAACUACAGAAAUGUAGUUGACGAGGAGGAGGUUUAUCGAAUUUGCGGCGGAUACCUCCAAA [U57G G66A],2.21e-05 ± 1.6e-05
